Laboratory results: patent US20150307487
The exact form of at least one protein or probe is not confirmed.

How the values were obtained:
[1] = tested on: DGCR8Δ (DGCR8 deletion construct); test: EMSA; conditions: binds 12, 24 and 60 repeats similarly; 50 mM Tris-HCl pH 8.0, 75 mM NaCl, 37.5 mM KCl, 1 mM MgCl2, 0.1 mg/mL yeast tRNA, room temperature; purified recombinant protein; protein details: His-tag, expressed in E. coli BL21; label: [alpha-32P]-ATP by in vitro transcription
[2] = tested on: DGCR8Δ (DGCR8 deletion construct); test: binding assay; conditions: TR-FRET complex (anti-His6-Tb / streptavidin-XL665), 160 nM RNA, 154.5 nM protein, 5 uM bulk tRNA, 2 mM MgCl2, 2 mM CaCl2, room temperature; purified recombinant protein; protein details: His-tag, expressed in E. coli BL21; label: 5'-biotin

CGGCGGCGGCGGCGGCGGCGGCGGCGGCGGCGGCGG [r(CGG)12, 32P-labelled]
binding result [1]: binds

CGGCGGCGGCGGCGGCGGCGGCGGCGGCGGCGGCGG [5'-biotin-r(CGG)12]
binding result [2]: binds
